Source: ChEMBL document CHEMBL5674883, “The Heterochromatin Landscape in Migrating Cells and the Importance of H3K27me3 for Associated Transcriptome Alterations” (Cells, 2018)
This continues a long series; more values of the same kind are listed elsewhere.

By UniProt entry, the sequences of proteins in these tests, tags left out.
UniProt Q61188, whole entry: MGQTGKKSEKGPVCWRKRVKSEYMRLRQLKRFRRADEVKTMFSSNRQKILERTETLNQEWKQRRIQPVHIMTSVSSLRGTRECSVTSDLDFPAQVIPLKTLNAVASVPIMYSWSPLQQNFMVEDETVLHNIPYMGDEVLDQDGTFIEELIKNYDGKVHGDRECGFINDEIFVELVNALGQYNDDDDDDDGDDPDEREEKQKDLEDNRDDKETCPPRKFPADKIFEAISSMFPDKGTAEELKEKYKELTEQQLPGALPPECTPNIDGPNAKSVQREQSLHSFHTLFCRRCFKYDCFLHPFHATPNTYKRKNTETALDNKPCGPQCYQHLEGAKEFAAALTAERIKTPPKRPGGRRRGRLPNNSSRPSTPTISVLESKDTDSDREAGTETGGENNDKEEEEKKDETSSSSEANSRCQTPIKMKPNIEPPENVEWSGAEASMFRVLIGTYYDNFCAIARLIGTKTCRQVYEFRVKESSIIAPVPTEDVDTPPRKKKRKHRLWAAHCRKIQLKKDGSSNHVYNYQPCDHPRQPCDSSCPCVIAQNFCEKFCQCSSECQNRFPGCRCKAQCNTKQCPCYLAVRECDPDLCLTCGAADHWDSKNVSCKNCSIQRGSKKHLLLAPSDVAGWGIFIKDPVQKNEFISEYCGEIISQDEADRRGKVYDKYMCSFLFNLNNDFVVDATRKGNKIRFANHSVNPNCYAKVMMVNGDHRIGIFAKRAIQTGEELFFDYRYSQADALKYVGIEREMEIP

Legend:
Format in all cases: cell-based
[1] = molecular target: Histone-lysine N-methyltransferase EZH2 (Mus musculus) (UniProt Q61188); assay: Inhibition of EZH2 in mouse B16-F1 migrating cells assessed as fold change in H3K27me3-independent regulated Zswim4-mRNA expression at 3 uM measured by ChIP-seq analysis relative to control cells
[2] = molecular target: Histone-lysine N-methyltransferase EZH2 (Mus musculus) (UniProt Q61188); assay: Inhibition of EZH2 in mouse B16-F1 migrating cells assessed as fold change in H3K27me3-independent regulated Edil3-mRNA expression at 3 uM measured by ChIP-seq analysis relative to control cells
[3] = molecular target: Histone-lysine N-methyltransferase EZH2 (Mus musculus) (UniProt Q61188); assay: Inhibition of EZH2 in mouse B16-F1 migrating cells assessed as fold change in H3K27me3-independent regulated Hk2-mRNA expression at 3 uM measured by ChIP-seq analysis relative to control cells
[4] = molecular target: Histone-lysine N-methyltransferase EZH2 (Mus musculus) (UniProt Q61188); assay: Inhibition of EZH2 in mouse B16-F1 migrating cells assessed as fold change in H3K27me3-buffered regulated Ftl1-mRNA expression at 3 uM measured by ChIP-seq analysis relative to control cells
[5] = molecular target: Histone-lysine N-methyltransferase EZH2 (Mus musculus) (UniProt Q61188); assay: Inhibition of EZH2 in mouse B16-F1 migrating cells assessed as fold change in H3K27me3-buffered regulated Sparc-mRNA expression at 3 uM measured by ChIP-seq analysis relative to control cells
[6] = molecular target: Histone-lysine N-methyltransferase EZH2 (Mus musculus) (UniProt Q61188); assay: Inhibition of EZH2 in mouse B16-F1 migrating cells assessed as fold change in H3K27me3-buffered regulated Ccdc88c-mRNA expression at 3 uM measured by ChIP-seq analysis relative to control cells
[7] = molecular target: Histone-lysine N-methyltransferase EZH2 (Mus musculus) (UniProt Q61188); assay: Inhibition of EZH2 in mouse B16-F1 migrating cells assessed as fold change in H3K27me3-buffered regulated Ccne2-mRNA expression at 3 uM measured by ChIP-seq analysis relative to control cells
[8] = molecular target: Histone-lysine N-methyltransferase EZH2 (Mus musculus) (UniProt Q61188); assay: Inhibition of EZH2 in mouse B16-F1 migrating cells assessed as fold change in H3K27me3-buffered regulated Tfap4-mRNA expression at 3 uM measured by ChIP-seq analysis relative to control cells
[9] = molecular target: Histone-lysine N-methyltransferase EZH2 (Mus musculus) (UniProt Q61188); assay: Inhibition of EZH2 in mouse B16-F1 migrating cells assessed as fold change in H3K27me3-buffered regulated Arhgef17-mRNA expression at 3 uM measured by ChIP-seq analysis relative to control cells
[10] = molecular target: Histone-lysine N-methyltransferase EZH2 (Mus musculus) (UniProt Q61188); assay: Inhibition of EZH2 in mouse B16-F1 migrating cells assessed as fold change in H3K27me3-buffered regulated Hmgb2-mRNA expression at 3 uM measured by ChIP-seq analysis relative to control cells
[11] = molecular target: T1, RNA polymerase II (Mus musculus) (UniProt P08775+Q8CFI7+P97760+A0A3Q4L2S8+Q80UW8+P61219+P62488+Q923G2+P60898+O08740+Q63871+P62876); assay: Inhibition of RNA polymerase II in mouse B16-F1 migrating cells assessed as fold change in Plekha6-RNA stability at 0.1 mM measured by ChIP-seq analysis relative to control cells
[12] = molecular target: T1, RNA polymerase II (Mus musculus); assay: Inhibition of RNA polymerase II in mouse B16-F1 migrating cells assessed as fold change in Fos-RNA stability at 0.1 mM measured by ChIP-seq analysis relative to control cells
[13] = molecular target: T1, RNA polymerase II (Mus musculus); assay: Inhibition of RNA polymerase II in mouse B16-F1 migrating cells assessed as fold change in Cotl1-RNA stability at 0.1 mM measured by ChIP-seq analysis relative to control cells
[14] = molecular target: T1, RNA polymerase II (Mus musculus); assay: Inhibition of RNA polymerase II in mouse B16-F1 migrating cells assessed as fold change in Med29-RNA stability at 0.1 mM measured by ChIP-seq analysis relative to control cells
[15] = molecular target: T1, RNA polymerase II (Mus musculus); assay: Inhibition of RNA polymerase II in mouse B16-F1 migrating cells assessed as fold change in Gtf3a-RNA stability at 0.1 mM measured by ChIP-seq analysis relative to control cells
[16] = molecular target: T1, RNA polymerase II (Mus musculus); assay: Inhibition of RNA polymerase II in mouse B16-F1 migrating cells assessed as fold change in St6galnac6-RNA stability at 0.1 mM measured by ChIP-seq analysis relative to control cells
[17] = molecular target: T1, RNA polymerase II (Mus musculus); assay: Inhibition of RNA polymerase II in mouse B16-F1 migrating cells assessed as fold change in Smim7-RNA stability at 0.1 mM measured by ChIP-seq analysis relative to control cells
[18] = molecular target: T1, RNA polymerase II (Mus musculus); assay: Inhibition of RNA polymerase II in mouse B16-F1 migrating cells assessed as fold change in Wac-RNA stability at 0.1 mM measured by ChIP-seq analysis relative to control cells
[19] = molecular target: T1, RNA polymerase II (Mus musculus); assay: Inhibition of RNA polymerase II in mouse B16-F1 migrating cells assessed as fold change in Xrcc4-RNA stability at 0.1 mM measured by ChIP-seq analysis relative to control cells
[20] = molecular target: T1, RNA polymerase II (Mus musculus); assay: Inhibition of RNA polymerase II in mouse B16-F1 migrating cells assessed as fold change in Ppp4r3b-RNA stability at 0.1 mM measured by ChIP-seq analysis relative to control cells
[21] = molecular target: T1, RNA polymerase II (Mus musculus); assay: Inhibition of RNA polymerase II in mouse B16-F1 migrating cells assessed as fold change in Cep295-RNA stability at 0.1 mM measured by ChIP-seq analysis relative to control cells
[22] = molecular target: T1, RNA polymerase II (Mus musculus); assay: Inhibition of RNA polymerase II in mouse B16-F1 migrating cells assessed as fold change in Dock11-RNA stability at 0.1 mM measured by ChIP-seq analysis relative to control cells
[23] = molecular target: T1, RNA polymerase II (Mus musculus); assay: Inhibition of RNA polymerase II in mouse B16-F1 migrating cells assessed as fold change in Zdhhc20-RNA stability at 0.1 mM measured by ChIP-seq analysis relative to control cells
[24] = molecular target: T1, RNA polymerase II (Mus musculus); assay: Inhibition of RNA polymerase II in mouse B16-F1 migrating cells assessed as fold change in Abce1-RNA stability at 0.1 mM measured by ChIP-seq analysis relative to control cells
[25] = molecular target: T1, RNA polymerase II (Mus musculus); assay: Inhibition of RNA polymerase II in mouse B16-F1 migrating cells assessed as fold change in Haus6-RNA stability at 0.1 mM measured by ChIP-seq analysis relative to control cells
[26] = molecular target: T1, RNA polymerase II (Mus musculus); assay: Inhibition of RNA polymerase II in mouse B16-F1 migrating cells assessed as fold change in Parpbp-RNA stability at 0.1 mM measured by ChIP-seq analysis relative to control cells
[27] = molecular target: T1, RNA polymerase II (Mus musculus); assay: Inhibition of RNA polymerase II in mouse B16-F1 migrating cells assessed as fold change in Zfyve16-RNA stability at 0.1 mM measured by ChIP-seq analysis relative to control cells
[28] = molecular target: T1, RNA polymerase II (Mus musculus); assay: Inhibition of RNA polymerase II in mouse B16-F1 migrating cells assessed as fold change in Eya4-RNA stability at 0.1 mM measured by ChIP-seq analysis relative to control cells
[29] = molecular target: T1, RNA polymerase II (Mus musculus); assay: Inhibition of RNA polymerase II in mouse B16-F1 migrating cells assessed as fold change in Far1-RNA stability at 0.1 mM measured by ChIP-seq analysis relative to control cells
[30] = molecular target: T1, RNA polymerase II (Mus musculus); assay: Inhibition of RNA polymerase II in mouse B16-F1 migrating cells assessed as fold change in Fndc3c1-RNA stability at 0.1 mM measured by ChIP-seq analysis relative to control cells

`CCCc1cc(C)[nH]c(=O)c1CNC(=O)c1cc(-c2ccnc(N3CCN(C)CC3)c2)cc2c1cnn2C(C)C` showed a log2FC [1] of 0.45, a log2FC [2] of 0.52 and a log2FC [3] of -1.01. For the same compound, the log2FC [4] was 0.42, the log2FC [5] was 0.4 and the log2FC [6] was -0.38. The log2FC [7] was -0.44, the log2FC [8] was -0.46 and the log2FC [9] was -0.49. For the same compound, the log2FC [10] was -0.53.
`OC[C@H]1O[C@@H](n2cnc3cc(Cl)c(Cl)cc32)[C@H](O)[C@@H]1O` was tested, and the log2FC [11] was 1.09, the log2FC [12] was 0.53 and the log2FC [13] was 0.5. For the same compound, the log2FC [14] was 0.45, the log2FC [15] was 0.45 and the log2FC [16] was 0.42. It also gave a log2FC [17] of 0.38, a log2FC [18] of -0.48 and a log2FC [19] of -0.51. It also gave a log2FC [20] of -0.52, a log2FC [21] of -0.54 and a log2FC [22] of -0.56. It also gave a log2FC [23] of -0.58, a log2FC [24] of -0.58 and a log2FC [25] of -0.58. The log2FC [26] was -0.62, the log2FC [27] was -0.67 and the log2FC [28] was -0.74. It also gave a log2FC [29] of -0.74 and a log2FC [30] of -0.85.
